PubChem BioAssay AID686943 | Drosophila RNAi Screening Center, 2013
Assay: 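Search across the genome for regulators of signalling from receptor tyrosine kinase to ERK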 (primary screen). System: Drosophila S2R+ haemocyte-like cells expressing YFP-tagged ERK (Rolled). Knock-down reagent: long dsRNA against Drosophila genes. Challenge: insulin stimulation versus unstimulated cells; dose and duration not given. Read-out: 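Antibody staining for doubly phosphorylated ERK divided by ERK-YFP signal, as plate z-scores, in insulin-treated and untreated cells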. Scale: replicate 1, z-score of dpERK with insulin and replicate 2, z-score of dpERK with insulin: higher = more active ERK per ERK-YFP after insulin; replicate 1, z-score of dpERK under basal conditions: higher = more basal active ERK per ERK-YFP.
The deposit covers about 23,000 reagents; below is an unselected part of those with a known target gene and a result. 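Extra replicates exist only for a retested subset of genes; insulin dose and duration not given; both raised and lowered dpERK matter.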 Reagents against one gene are numbered here. Names joined by + are all predicted targets of the reagent. Further read-outs or replicates are left out here. Reagent sequences are not shown. Not given: the amount of reagent, the time to read-out.

gene	reagent no.	replicate 1, z-score of dpERK with insulin	replicate 2, z-score of dpERK with insulin	replicate 1, z-score of dpERK under basal conditions
Shal (GeneID 40129)	1	-0.42	-0.02	0.63
Shal (GeneID 40129)	2	0.53	-0.61	-0.39
Uro (GeneID 34060)	1	0.82	1.09	0.01
PolZ1 (GeneID 47186)	1	0.09	-0.73	0.33
asRNA:CR43426 (GeneID 12798470)	1	-0.09	-0.34	-0.54
Tmtc4 (GeneID 41867)	1	-0.6	0.63	0.88
bip1 (GeneID 38891)	1	0.25	0.3	0.13
Polr3I (GeneID 32678)	1	0.5	-0.29	-0.05
Obp56h (GeneID 37271)	1	-1.32	-1.6	-0.95
CG9344 (GeneID 37372)	1	1.64	0.19	-0.54
Npc1b (GeneID 33072)	1	-0.09	0.17	0.09
CG14545 (GeneID 50075)	1	0.84	-0.06	0.07
Idh3g (GeneID 43102)	1	-0.08	-0.09	2.37
CG7251 (GeneID 33791)	1	-0.75	-0.59	0.14
betaNACtes5 (GeneID 10178924)	1	0.06	-0.86	-0.66
CG34417 (GeneID 31591)	1	-0.59	-0.5	-0.58
CG34417 (GeneID 31591)	2	0.55	0.35	
CG34417 (GeneID 31591)	3	-0.1	-1.07	0.22
mRpL48 (GeneID 33348)	1	-1.98	-0.28	-0.18
nSyb (GeneID 38196)	1	0.28	1.41	0.51
nSyb (GeneID 38196)	2	-2.37	0.95	-0.05
CG7183 (GeneID 42181)	1	-0.32	0.48	0.31
Or13a (GeneID 32562)	1	-0.15	0.1	-0.76
CG6356 (GeneID 42893)	1	0.76	0.03	-0.28
Rim2 (GeneID 33350)	1	0.98	-0.22	0.7
Rim2 (GeneID 33350)	2	-0.36	-1.13	-0.44
Rim2 (GeneID 33350)	3	0.16	0.33	-0.44
Damm (GeneID 36266)	1	0.02	0.05	-0.37
CG32576 (GeneID 318095)	1	0.04	0.65	0.1
CG6168 (GeneID 39273)	1	-0.1	0.14	-0.3
Gdap2 (GeneID 59173)	1	0.22	0.05	1.2
Gdap2 (GeneID 59173)	2	-0.44	-0.14	-0.21
Mob2 (GeneID 39293)	1	-0.58	0.64	0.33
Mob2 (GeneID 39293)	2	0.82	-0.08	-0.07
Mob2 (GeneID 39293)	3	0.74	1.84	-0.2
Hr78 (GeneID 40378)	1	-0.3	-0.19	1.02
CG13282 (GeneID 35019)	1	-0.22	-0.19	-0.19
CG16739 (GeneID 37307)	1	-1	-0.07	0.76
Tk (GeneID 41456)	1	0.94	1.14	1.45
Tk (GeneID 41456)	2	-0.13	0.1	1.69
GstD9 (GeneID 41502)	1	-0.04	0.63	0.38
ND-19 (GeneID 37946)	1	0.61	1.06	1.25
Dnaaf4 (GeneID 34547)	1	-0.4	-0.37	0.16
GstE4 (GeneID 37109)	1	-0.41	0.11	-0.08
CG14079 (GeneID 40086)	1	0.73	-0.68	-1.05
Nmdar1 (GeneID 40665)	1	-0.94	0.37	-0.67
Nmdar1 (GeneID 40665)	2	0.79	1.27	-0.14
CG15537 (GeneID 43614)	1	0.33	0.09	0.38
CG8785 (GeneID 36391)	1	-0.03	0.25	-0.26
tplus3a + tplus3b	1	-1.98	-1.63	-0.08
mask (GeneID 50070)	1	0.76	-0.14	0.99
mask (GeneID 50070)	2	0.52	0.9	-0.82
mask (GeneID 50070)	3	0.22	-0.13	-0.99
CG42686 (retired record) (GeneID 42674)	1	-1.46	-3.05	-3.38
CG42686 (retired record) (GeneID 42674)	2	-0.35	0	0.34
spt4 (GeneID 36387)	1	0.14	0.34	-0.51
Prosbeta2 (GeneID 39628)	1	-1.42	-2.87	-2.76
para (GeneID 32619)	1	0.27	0.1	0.21
para (GeneID 32619)	2	0.84	0.26	0.06
Hr83 (GeneID 40783)	1	0.34	0.43	1.01
CG7988 (GeneID 42180)	1	0.36	0.12	0.98
CG31709 (GeneID 261620)	1	0.24	0.38	1.02
Sfp53D (GeneID 8673983)	1	1.05	1.14	-0.33
CG11825 (GeneID 36099)	1	-0.05	-0.14	-0.07
CYTB (retired record) (GeneID 192472)	1	0.17	-0.4	1.08
Cpr73D (GeneID 39897)	1	-0.25	-0.14	-0.06
Bem46 (GeneID 44441)	1	0.48	0.3	0.19
CG31693 (GeneID 318887)	1	0.56	-0.37	-0.16
btv (GeneID 35073)	1	-0.31	-1.37	-0.38
btv (GeneID 35073)	2	-0.14	0.23	-0.99
CG32206 (GeneID 40105)	1	0.51	0.45	0.08
CG32206 (GeneID 40105)	2	0.72	1.04	0.01
CG32206 (GeneID 40105)	3	-0.04	0.23	-0.33
CG32206 (GeneID 40105)	4	0.29	0.46	-0.3
CG32206 (GeneID 40105)	5	0.32	0.18	-0.51

An excerpt from the list above, as a working copy:
gene	reagent no.	replicate 1, z-score of dpERK with insulin	replicate 2, z-score of dpERK with insulin	replicate 1, z-score of dpERK under basal conditions
CYTB (retired record) (GeneID 192472)	1	0.17	-0.4	1.08
Cpr73D (GeneID 39897)	1	-0.25	-0.14	-0.06
Bem46 (GeneID 44441)	1	0.48	0.3	0.19
CG31693 (GeneID 318887)	1	0.56	-0.37	-0.16
btv (GeneID 35073)	1	-0.31	-1.37	-0.38
btv (GeneID 35073)	2	-0.14	0.23	-0.99
CG32206 (GeneID 40105)	1	0.51	0.45	0.08
CG32206 (GeneID 40105)	2	0.72	1.04	0.01
CG32206 (GeneID 40105)	3	-0.04	0.23	-0.33
CG32206 (GeneID 40105)	4	0.29	0.46	-0.3
CG32206 (GeneID 40105)	5	0.32	0.18	-0.51
